Values quoted from earlier work, collected in patent US20240299387A1, “HETEROCYCLIC EGFR INHIBITORS FOR USE IN THE TREATMENT OF CANCER” (Blueprint Medicines Corporation, priority 2021, published 2024).
Some entries share one result that the patent states for a list of compounds.

System: EGFR mutant NSCLC (EGFR M+)
Settings: EGFR M+ NSCLC patients treated first line (1 L); cited from earlier work

SMILES: C=CC(=O)Nc1cc(Nc2nccc(-c3cn(C)c4ccccc34)n2)c(OC)cc1N(C)CCN(C)C [osimertinib]
- objective response rate (ORR): 60-85%
